No constants are given. Whether binding was seen depends on the method and setting. Binding seen in cells or lysates may run through a third protein.
How the values were obtained:
Experiment in all cases: co-IP; lysates of SK1 cells transfected with GST-tagged bcl-2 constructs and treated with GO6976; immunoprecipitated with anti-GST antibody, immunoblotted with anti-Keap1 or anti-Cul3 antibody
[1] = target: Bcl-2 BH4 deletion mutant tagged with GST (UniProt P10417)
[2] = target: Bcl-2/R17 (lysine 17 mutant) tagged with GST (UniProt P10417)
[3] = target: Bcl-2 BH2 deletion mutant tagged with GST (UniProt P10417)

Chains of the proteins cited; added tags and fusions are not shown. Lines headed by an entry give the natural chain unless they say otherwise; changes in a name come on top.
UniProt P10417: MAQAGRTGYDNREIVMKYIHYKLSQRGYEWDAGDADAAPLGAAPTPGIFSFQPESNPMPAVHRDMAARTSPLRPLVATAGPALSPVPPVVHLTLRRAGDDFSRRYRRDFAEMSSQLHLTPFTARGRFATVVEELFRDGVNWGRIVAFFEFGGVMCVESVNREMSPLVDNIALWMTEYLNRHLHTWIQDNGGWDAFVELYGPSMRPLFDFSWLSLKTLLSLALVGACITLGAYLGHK
UniProt Q9JLV5: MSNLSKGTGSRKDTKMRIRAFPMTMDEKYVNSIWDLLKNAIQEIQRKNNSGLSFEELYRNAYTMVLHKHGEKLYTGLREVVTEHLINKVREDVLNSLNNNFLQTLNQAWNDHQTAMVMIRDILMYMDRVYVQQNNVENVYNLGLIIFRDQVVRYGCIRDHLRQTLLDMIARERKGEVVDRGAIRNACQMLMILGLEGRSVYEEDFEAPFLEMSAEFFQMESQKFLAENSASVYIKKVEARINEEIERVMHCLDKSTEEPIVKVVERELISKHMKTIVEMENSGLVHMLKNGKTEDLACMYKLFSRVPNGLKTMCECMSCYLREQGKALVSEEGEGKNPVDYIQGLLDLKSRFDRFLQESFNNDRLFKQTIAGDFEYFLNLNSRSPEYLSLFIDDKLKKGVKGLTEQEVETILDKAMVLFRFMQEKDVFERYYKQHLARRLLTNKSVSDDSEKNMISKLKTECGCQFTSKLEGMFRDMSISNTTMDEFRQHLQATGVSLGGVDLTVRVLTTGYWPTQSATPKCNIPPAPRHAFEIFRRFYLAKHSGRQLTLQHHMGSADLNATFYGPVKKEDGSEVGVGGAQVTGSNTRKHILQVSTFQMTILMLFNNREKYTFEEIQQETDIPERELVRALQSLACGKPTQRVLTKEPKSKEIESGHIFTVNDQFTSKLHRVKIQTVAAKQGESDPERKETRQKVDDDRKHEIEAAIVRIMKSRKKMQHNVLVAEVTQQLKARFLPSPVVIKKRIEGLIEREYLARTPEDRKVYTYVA

Measured: binding

Cul3 (from UniProt Q9JLV5 1-768)
no binding: all assays above
